In the supplement of paper PMC6414424:
± gives the standard deviation of the averaged measurements. This is one part of the list.

System: APPdp1-6 iPSC-derived neurons
Assay: pThr231Tau/total Tau ratio Z-score vs DMSO vehicle wells; higher = more pThr231Tau relative to total Tau
Conditions: 5 µM; treatment time 5 days

Structure (SMILES) | pThr231Tau/total Tau ratio Z-score
C[C@@H]1CN([C@H]2CC[C@](C#N)(c3ccc(F)cc3)CC2)CC[C@]1(C(=O)O)c1ccccc1 [Prestw-1039] | -0.325 ± 0.87
C=CCC1(CC(C)C)C(=O)NC(=O)NC1=O [Prestw-1251] | 1.83 ± 0.51
CCC1(CC)C(=O)NC(=O)NC1=O | 0.156 ± 1.7
O=C1CCO1 [BETA-PROPIOLACTONE    Therap cat: antiseptic] | 0.937 ± 0.93
O=C(CCCN1CCC(n2c(=O)[nH]c3ccccc32)CC1)c1ccc(F)cc1 [Prestw-484] | -0.64 ± 0.84
CCC(=O)O[C@H]1CC[C@H]2[C@@H]3CCC4=CC(=O)CC[C@]4(C)[C@H]3CC[C@]12C [Prestw-401] | 0.504 ± 0.79
COc1cccc([C@@]2(O)CCCC[C@@H]2CN(C)C)c1 [Prestw-1465] | -0.00259 ± 0.6
CNC(=O)Oc1cccc2c1OC(C)(C)C2 | 1.93 ± 1.6
CCC1(C)CC(=O)NC(=O)C1 [Prestw-882] | -0.735 ± 0.96
COC(C)(C)CCC[C@H](C)C/C=C/C(C)=C/C(=O)OC(C)C | 0.371 ± 0.78
CCCC(C)(COC(N)=O)COC(=O)NC(C)C (stereo unspecified) [Prestw-423] | 0.593 ± 0.86
Oc1ccc(Cl)cc1Cc1cc(Cl)ccc1O [DICHLOROPHENE    Therap cat:  Anthelmintic (Cestotodes)] | -3.54 ± 0.048
OC(c1ccccc1)(c1ccccc1)C1CCNCC1 [Prestw-93] | -0.513 ± 0.61
CN(C)c1ccc2nc3ccc(=[N+](C)C)cc-3sc2c1 [METHYLENE BLUE, antimethemoglobinemic, cyanide antidote] | -1.36 ± 0.079
C[N+]1(C)CCCC(OC(=O)C(O)(c2ccccc2)c2ccccc2)C1 (stereo unspecified) [Prestw-653] | 0.321 ± 0.094
C=CCc1ccc(OC)cc1 [ANETHOLE    ex anise, fennel and other plant oils] | -0.224 ± 0.053
CC[C@@H](C)C(=O)O[C@H]1[C@H](O)[C@H]2[C@@H](CN3C[C@@H](C)CC[C@H]3[C@@]2(C)O)[C@@H]2C[C@]34O[C@]5(O)[C@@H](OC(=O)[C@@](C)(O)CC)CC[C@@]3(C)[C@@H]5[C@@H](OC(C)=O)[C@@H](OC(C)=O)[C@H]4[C@@]21O | -1.57 ± 0.82
NCC1(CC(=O)O)CCCCC1 [GABAPENTIN, anticonvulsant] | -0.0536 ± 0.74
NCC1(CC(=O)O)CCCCC1 [Prestw-861] | 0.843 ± 0.49
O=c1cccc2n1C[C@@H]1CNC[C@H]2C1 | 0.711 ± 0.13
COc1ccc(OC)c([C@@H](O)[C@H](C)N)c1 [Prestw-535] | 1.6 ± 0.84

Structure (SMILES) | pThr231Tau/total Tau ratio Z-score
OCC(S)CS (stereo unspecified) | -0.451 ± 0.096
O=C(CCCN1CCC2(CC1)C(=O)NCN2c1ccccc1)c1ccc(F)cc1 [Prestw-288] | 1.7 ± 0.61
C=C1CC[C@@]2(O)[C@H]3Cc4ccc(O)c5c4[C@@]2(CCN3CC2CC2)[C@H]1O5 [Prestw-1490] | -0.379 ± 0.24
O=[N+]([O-])O[C@H]1CO[C@H]2[C@@H]1OC[C@H]2O[N+](=O)[O-] [Prestw-714] | -0.792 ± 0.65
CC(O)(CS(=O)(=O)c1ccc(F)cc1)C(=O)Nc1ccc(C#N)c(C(F)(F)F)c1 (stereo unspecified) [Prestw-1239] | -0.0449 ± 0.48
CCOC(=O)c1cncn1[C@H](C)c1ccccc1 [Prestw-1041] | 1.33 ± 0.56
CC[C@@H](CO)NC(=O)[C@@H]1C=C2c3cccc4[nH]cc(c34)C[C@H]2N(C)C1 [Prestw-374] | 0.821 ± 1.4
CCC1(C2=NCCN2)Cc2ccccc2O1 (stereo unspecified) [I1 Imidazoline binding site antagonist] | 1.01 ± 3.9
CCCCOC(=O)c1ccccc1C(=O)OCCCC | 0.183 ± 2.1
O=C(O)c1nn(Cc2ccc(Cl)cc2Cl)c2ccccc12 | 0.296 ± 0.82
COc1ccc2c(c1OC)C(=O)O[C@@H]2[C@H]1c2cc3c(cc2CCN1C)OCO3 | 1.07 ± 0.79
Cc1cc(C(C#N)c2ccc(Cl)cc2)c(Cl)cc1NC(=O)c1cc(I)cc(I)c1O (stereo unspecified) [Prestw-1385] | -0.567 ± 0.71
C[C@@H]1C[C@@H]([C@H](O)CC2CC(=O)NC(=O)C2)C(=O)[C@@H](C)C1 [Prestw-790] | -1.52 ± 0.73
O=c1[nH]oc2c1CCNC2 [Prestw-972] | 0.279 ± 1.4
CC1C=CC=CCCC=CC=CC=CC=CC(OC2OC(C)C(O)C(N)C2O)CC2OC(O)(CC(O)C(O)CCC(O)CC(O)CC(O)CC(=O)OC(C)C(C)C1O)CC(O)C2C(=O)O (stereo unspecified) [Prestw-517] | -0.905 ± 0.49
COc1cc2c(c(OC)c1OC)-c1ccc(OC)c(=O)cc1[C@@H](NC(C)=O)CC2 [Prestw-363] | 4.72 ± 12
CC[C@@H](CO)NC(=O)[C@@H]1C=C2c3cccc4c3c(cn4C)C[C@H]2N(C)C1 | -0.573 ± 0.67
C[C@]12CC[C@H](O)CC1=CC[C@@H]1[C@@H]2CC[C@]2(C)C(=O)CC[C@@H]12 | 0.999 ± 0.53
c1ccc2c(c1)OCC(C1=NCCN1)O2 (stereo unspecified) [Prestw-926] | -0.293 ± 1.1
CCCCCC[C@H]1C(=O)O[C@H](C)[C@H](NC(=O)c2cccc(NC=O)c2O)C(=O)O[C@@H](C)[C@@H]1OC(=O)CC(C)C [Prestw-222] | -3.17 ± 1.3

Another view of some results above.
Structure (SMILES),pThr231Tau/total Tau ratio Z-score
CC[C@@H](CO)NC(=O)[C@@H]1C=C2c3cccc4[nH]cc(c34)C[C@H]2N(C)C1 [Prestw-374],0.821 ± 1.4
CCC1(C2=NCCN2)Cc2ccccc2O1 (stereo unspecified) [I1 Imidazoline binding site antagonist],1.01 ± 3.9
CCCCOC(=O)c1ccccc1C(=O)OCCCC,0.183 ± 2.1
O=C(O)c1nn(Cc2ccc(Cl)cc2Cl)c2ccccc12,0.296 ± 0.82
COc1ccc2c(c1OC)C(=O)O[C@@H]2[C@H]1c2cc3c(cc2CCN1C)OCO3,1.07 ± 0.79
Cc1cc(C(C#N)c2ccc(Cl)cc2)c(Cl)cc1NC(=O)c1cc(I)cc(I)c1O (stereo unspecified) [Prestw-1385],-0.567 ± 0.71
C[C@@H]1C[C@@H]([C@H](O)CC2CC(=O)NC(=O)C2)C(=O)[C@@H](C)C1 [Prestw-790],-1.52 ± 0.73
O=c1[nH]oc2c1CCNC2 [Prestw-972],0.279 ± 1.4
CC1C=CC=CCCC=CC=CC=CC=CC(OC2OC(C)C(O)C(N)C2O)CC2OC(O)(CC(O)C(O)CCC(O)CC(O)CC(O)CC(=O)OC(C)C(C)C1O)CC(O)C2C(=O)O (stereo unspecified) [Prestw-517],-0.905 ± 0.49
COc1cc2c(c(OC)c1OC)-c1ccc(OC)c(=O)cc1[C@@H](NC(C)=O)CC2 [Prestw-363],4.72 ± 12
CC[C@@H](CO)NC(=O)[C@@H]1C=C2c3cccc4c3c(cn4C)C[C@H]2N(C)C1,-0.573 ± 0.67
